The chains are these.
T1: human MAdCAM, full length, on cells (human) (UniProt Q13477)
T1 sequence (looked up): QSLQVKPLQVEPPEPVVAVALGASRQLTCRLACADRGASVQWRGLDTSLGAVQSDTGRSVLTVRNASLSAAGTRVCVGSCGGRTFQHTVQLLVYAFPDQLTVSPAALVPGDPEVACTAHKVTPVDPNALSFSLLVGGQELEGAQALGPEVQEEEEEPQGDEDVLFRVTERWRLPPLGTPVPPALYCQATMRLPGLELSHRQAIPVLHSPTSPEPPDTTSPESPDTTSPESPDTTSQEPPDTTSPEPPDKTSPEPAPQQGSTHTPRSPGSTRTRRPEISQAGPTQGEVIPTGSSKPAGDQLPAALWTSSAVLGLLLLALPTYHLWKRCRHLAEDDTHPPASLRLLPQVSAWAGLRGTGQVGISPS

B1: modified anti-MAdCAM monoclonal antibody 6.34.2-mod (antibody, human IgG2, kappa, V domains shown)
VH: QVQLVESGGGVVQPGRSLRLSCAASGFTFSSYGMHWVRQAPGKGLEWVAVISNDGNNKYYADSVKGRFTISRDNSKNTLYLQMNSLRAEDTAVYYCARDSTAITYYYYGMDVWGQGTTVTVSS
VL: DIQMTQSPSSLSASVGDRVTITCRASQSISSYLNWYQQKPGKAPKLLIYAASGLKRGVPSRFSGSGSGTDFTLTISSLQPEDFATYYCHQSYSLPFTFGPGTKVDIKR
B2: modified anti-MAdCAM monoclonal antibody 6.77.1-mod (antibody, human IgG2, kappa, V domains shown)
VH: EVQLVESGGGLVKPGGSLRLSCAASGFTFSSYSMNWVRQAPGKGLEWVSSISSSSSYIYYADSVKGRFTISRDNAKNSLYLQMNSLRAEDTAVYYCARDGYSSGWSYYYYYGMDVWGQGTTVTVSS
VL: DIVMTQTPLSLSVTPGQPASISCKSSQSLLLSDGKTYLNWYLQKPGQPPQLLIYEVSNRFSGVPDRFSGSGSGTDFTLKISRVEAEDVGVYSCMQSIQLMSSFGQGTKLEIKR
B3: modified anti-MAdCAM monoclonal antibody 7.26.4-mod (antibody, human IgG2, kappa, V domains shown)
VH: QVQLVQSGAEVKKPGASVKVSCEASGYTFTSYGIDWVRQAPGQGLEWMGWISVYSGNTNYAQKLQGRVTMSTDTSTSTAYMELRSLRSDDTAVYYCAREGSSSSGDYYYGMDVWGQGTTVTVSS
VL: B2 VL with L31Y, N39F, S92Y, M100P, S101W, S102T, L109V
B4: anti-MAdCAM monoclonal antibody 6.14.2 (antibody, human IgG4, kappa, V domains shown)
VH: EVQLLESGGGLVQPGGSLRLSCAASGLTFNNSAMTWVRQAPGKGLEWVSTTSGSGGTTYYADSVKGRFTISRDSPKNTLYLQMNSLRAEDTAVYYCAARGYSYGTTPYEYWGQGTLVTVSS
VL: DIQMTQSPSSLSASVGDRVTITCRASRSISSYLNWYQQKPGKAPKVLIFFVSSLQSGVPSRFSGSGSGTDFTLTISSLQPEDFATYYCQQNYIPPITFGQGTRLEIRR
B5: anti-MAdCAM monoclonal antibody 6.34.2 (antibody, human IgG4, kappa, V domains shown)
VH: B1 VH with R87S
VL: B1 VL with S28N, Y36F, S76R, S77T, E81D, Y87S
B6: anti-MAdCAM monoclonal antibody 6.22.2 (antibody, human IgG4, kappa, V domains shown)
VH: QVQLVESGGGVVQPGRSLRLSCAASGHTFSSDGMHWVRQAPGKGLEWVAIIWYDGSNKYYADSVKGRFTISRDNSKNTLYLQMNSLRAEDTAVYYCARDPGYYYGMDVWGQGTTVTVSS
VL: EIVLTQSPDFQSVTPKEKVTITCRASQRIGSSLHWYQQKPDQSPKLLIKYASQSFSGVPSRFSGSGSGTNFTLTINGLEAEDAATYYCHQSGRLPLTFGGGTKVEIKR
B7: anti-MAdCAM monoclonal antibody 7.26.4 (antibody, human IgG2, kappa, V domains shown)
VH: B3 VH
VL: B2 VL with S26N, L31Y, N39F, S92Y, M100P, S101W, S102T, L109V
B8: anti-MAdCAM monoclonal antibody 6.77.1 (antibody, human IgG4, kappa, V domains shown)
VH: B2 VH
VL: B2 VL with K24N, S101C
B9: anti-MAdCAM monoclonal antibody 6.73.2 (antibody, human IgG4, kappa, V domains shown)
VH: EVQLLESGGDLVQPGGSLRLSCAASGFTFRSYAMNWVRQAPGKGLEWVSVISGRGGTTYYADSVKGRFTISRDNSKNTLYLQMNSLRAEDAAVYYCAKIAVAGEGLYYYYGMDVWGQGTTVTVSS
VL: DIQMTQSPSSLSASVGDRVTFTCRASQNITNYLNWYQQKPGKAPKLLIYAASSLPRGVPSRFRGSGSGTDFTLTISSLQPEDFATYYCQQSYSNPPECGFGQGTTLDIKR

Numbering of substitutions follows the chain as printed. These are yes or no findings as the source states them, for the method shown. Some results given as binding are weak or reduced against the parent protein; the word gives no strength.

These results are taken from patent US20070166308A1.

The first experiment addresses T1, human MAdCAM, full length, on cells (human). Description: binding to CHO cells expressing recombinant human MAdCAM.
Turning to B1, the binding entry is “binds”.

B2: the binding entry is recorded as “binds”.

As for B3, the binding entry is listed as “binds”.

Another experiment shares this target. Description: immunohistochemistry on human frozen tissue sections.
Take B4: the binding result is reported as “binds”.

As for B5, the binding entry is recorded as “binds”.

For B6, the binding result is “binds”.

For the molecule B7, the binding result was “binds”.

Take B8: the binding result is listed as “binds”.

Regarding B9, the binding entry is “binds”.

In another experiment the target is MAdCAM-IgG1 Fc fusion protein (human). As to the kind of experiment: ELISA on coated MAdCAM-IgG1 Fc. A general note: An ELISA detects its analyte on a solid surface through an enzyme-linked reagent.
Regarding B4, the binding result is recorded as “binds”.

For the molecule B9, the binding result is “binds”.
